Reference: PubChem BioAssay AID540276 (National Center for Advancing Translational Sciences (NCATS), 2011)
Among all 300,000 compounds or so, about 5,400 (1.8%) were called active. Inconclusive results, whose numbers are uncertain, are shown with a selection of clear calls. Calls follow the shape of the full dose curve; tested in HEK293 cells. Potencies of inconclusive entries are doubtful fits and often do not repeat.

Assay: qHTS for inhibitors of binding or entry into cells for Marburg Virus
Conditions: Marburg virus pseudotyped entry inhibition, cell reporter; series mostly up to 37.8 µM
Potency is read from the fitted curve at half-maximal effect.

Structure (SMILES)	Potency
CC(=O)CC(=O)NC1C2CC3CC(C2)CC1C3 (stereo not given)	inactive
Cc1ccc(Nc2nnc(SC3CCOC3=O)s2)cc1 (stereo not given)	inconclusive: 0.891 µM [activator, partial curve, poor fit]
COc1ccccc1OCCn1c(=O)n(C)c2ccccc21	inconclusive: 35.5 µM [activator, single point]
COCCN1CCn2c(nc3cc(NS(C)(=O)=O)ccc32)C1	inconclusive: 6.31 µM [inhibitor, single point]
COC(=O)c1sccc1NC(=O)c1csc(C)c1	inconclusive: 18.3 µM [inhibitor, single point]
CCSC1=C(C#N)[C@@H](c2cccs2)C(C(=O)OC)=C(C)N1	inactive
CN1C(=O)c2ccccc2Sc2ccc(NC(=O)NCc3cccc(Cl)c3)cc21	inconclusive: 12.6 µM [inhibitor, single point]
CN1CCN(c2nc(Nc3ccc(O)cc3)nc3ccccc23)CC1	inconclusive: 10 µM [inhibitor, partial curve, poor fit]
Cn1c(SCc2nc3ccccc3c(=O)[nH]2)nc2ccccc21	inactive
CC1Cc2ccccc2N1C(=O)CSc1nnc2n1C(C)(C)Cc1ccccc1-2 (stereo not given)	inactive
O=C(CN1CCC(Cc2ccccc2)CC1)NC(=O)NCc1ccco1	inconclusive: 0.708 µM [activator, single point]
CCOC(=O)CSc1nc(-c2ccc(Cl)cc2)cc(C(F)(F)F)c1C#N	inactive
CC(=O)N1CCN(c2ccc(N=Cc3c(O)n(-c4ccc(Cl)cc4)c(=O)[nH]c3=O)cc2)CC1	inconclusive: 20 µM [activator, single point]
Cc1cc(C)cc(NC(=O)Cc2ccc(-n3cccc3)cc2)c1	inconclusive: 3.16 µM [activator, single point]
O=C(CCC1CCCC1)Nc1ccc([N+](=O)[O-])cn1	inconclusive: 1 µM [inhibitor, single point]
CN1C(=O)/C(=C\N2CCc3ccccc32)C(=O)NC1=S	inactive
Cc1ccc(C)n1-c1ccc(C#N)cn1	inactive
CCN(CC)S(=O)(=O)c1ccc(C(=O)NCCSc2c(-c3ccc(C)cc3)[nH]c3ccccc23)cc1	inconclusive: 15.8 µM [inhibitor, single point]
COc1ccc(-c2csc3ncnc(N4CCN(c5cccc(OC)c5)CC4)c23)cc1	inconclusive: 5.01 µM [inhibitor, single point]
CCOC(=O)c1cn(Cc2c(C)c(C)c(C)c(C)c2C)nn1	inconclusive: 5.62 µM [inhibitor, partial curve, poor fit]
CCOC(=O)c1ccc(NS(=O)(=O)c2ccc(SC)cc2)cc1	inconclusive: 32.6 µM [inhibitor, single point]
Cc1ccc(CCNC(=O)C2CCC(=O)N(CC3CCCCC3)C2)cc1 (stereo not given)	inactive
O=C(NCC1COc2ccccc2O1)c1cc2ccccc2o1 (stereo not given)	inactive
O=C(Nc1ccc(OCC(F)(F)C(F)F)c(C(F)(F)F)c1)c1ccc(Cl)cc1	active: 15.8 µM

Structure (SMILES)	Potency
O=C(NCC1CCCCC1)c1cccc([N+](=O)[O-])c1	inactive
CCCCN=C(Nc1ccc(Cl)cc1)c1cccnc1	inactive
COC(=O)c1cccc(NC(=O)c2nsc3ccccc23)c1	inconclusive: 1.58 µM [activator, partial curve, poor fit]
COc1ccc(/C=N/NC(=O)c2ccco2)cc1Cn1nc(C)c([N+](=O)[O-])c1C	inconclusive: 6.31 µM [inhibitor, full curve, poor fit]
COC(=O)c1sc(NC(=O)c2cccc([N+](=O)[O-])c2)c(C(N)=O)c1C	inconclusive: 0.282 µM [inhibitor, full curve, poor fit]
CC(=O)c1c(C)[nH]c(C(=O)OCC(=O)Nc2ccc(Cl)cc2[N+](=O)[O-])c1C	active: 6.31 µM
CN(C(=O)COC(=O)c1ccc(S(=O)(=O)N2CCOCC2)cc1)C1CCCCC1	inconclusive: 4.47 µM [activator, single point]
CS(=O)(=O)c1ccc(C(=O)OCC(=O)NCc2cccs2)cc1[N+](=O)[O-]	inconclusive: 35.5 µM [inhibitor, partial curve, poor fit]
CCOc1ccc(OCC(=O)Nc2nccs2)cc1	inconclusive: 1.41 µM [inhibitor, full curve, poor fit]
COc1ccc(C(C)=O)cc1CC(=O)N(Cc1ccccc1)c1ccccc1	inconclusive: 11.2 µM [inhibitor, partial curve, poor fit]
Nc1c(-c2n[nH]c(=S)n2-c2ccc(Cl)cc2Cl)cnn1-c1ccccc1	inconclusive: 5.62 µM [inhibitor, single point]
O=C(Nc1ccc2nn(-c3ccccc3)nc2c1)c1ccc(Br)o1	inconclusive: 29.1 µM [inhibitor, single point]
O=C(c1cc(F)ccc1F)N1CCC(N2CCC(C(=O)N3CCCC3)CC2)CC1	inconclusive: 3.16 µM [activator, full curve, poor fit]
COc1cccc(OCc2cc(=O)n3c(-c4ccccc4)csc3n2)c1	inconclusive: 12.6 µM [activator, single point]
COCCCNC(=O)c1ccc2nc3ccccc3c(=O)n2c1	inactive
CC(/C=N/NC(=O)c1cc(-c2cccnc2)nc2c1c(C)nn2-c1ccccc1)=C\c1ccccc1	inconclusive: 5.62 µM [inhibitor, full curve]
Cc1cc(Cl)ccc1NC(=S)NCCCO	inactive
CC1(C)Oc2ccc3ccc(=O)oc3c2/C(=C/O)C1=O	inactive
COc1ccc(/C=C/c2c([N+](=O)[O-])c(=O)n(C)c(=O)n2C)cc1OC	inconclusive: 3.26 µM [inhibitor, partial curve, poor fit]
O=C(Nc1ccc2oc(-c3ccncc3)nc2c1)c1ccco1	inconclusive: 7.94 µM [activator, partial curve, poor fit]
Cc1cc(C)c[n+](CC(=O)c2ccccc2)c1	inconclusive: 20 µM [inhibitor, single point]
CCOc1ccc(OCc2ccc(C(=O)OCc3ccccn3)o2)cc1	inconclusive: 35.5 µM [inhibitor, single point]
Cc1cc(NS(=O)(=O)c2ccc(NC(=O)/C=C/c3ccco3)cc2)nc(C)n1	inactive
CNC(=O)Nc1ccccc1C(=O)NCc1ccccc1	inconclusive: 25.1 µM [activator, single point]

Structure (SMILES)	Potency
CC(NC(=O)/C(=C/c1ccc2c(c1)OCO2)NC(=O)c1cccc([N+](=O)[O-])c1)C(=O)O (stereo not given)	inactive
CCOC(=O)Cc1csc(NS(=O)(=O)c2ccc([N+](=O)[O-])cc2)n1	inactive
O=c1[nH]nc(SCCS(=O)(=O)c2ccc(F)cc2)n1-c1ccc2c(c1)OCCO2	inconclusive: 14.1 µM [inhibitor, partial curve, poor fit]
N#CC(=C1CCCC1)c1nc(-c2ccccc2)cs1	inactive
COc1ccccc1CNc1cc(CSc2ccc(Cl)cc2)nc(C)n1	inconclusive: 35.5 µM [inhibitor, single point]
COc1ccc(C(C(=O)NCC2CCCO2)N(Cc2cccs2)C(=O)c2snc(C(N)=O)c2N)cc1 (stereo not given)	active: 3.16 µM
CCN(CC)c1ccc(NC(=O)c2cc(Cl)ccc2OC)cc1	inconclusive: 1 µM [activator, partial curve, poor fit]
Oc1ccc(CN2CCCCC2)c2cccnc12	inconclusive: 25.9 µM [inhibitor, partial curve, poor fit]
O=C(Nc1ccc(Cc2ccncc2)cc1)C1CCC(N2C(=O)C3C4C=CC(C5CC45)C3C2=O)CC1 (stereo not given)	inconclusive: 8.2 µM [inhibitor, partial curve, poor fit]
O=[N+]([O-])c1cc([N+](=O)[O-])c2cccnc2c1Oc1ccccc1O	inconclusive: 35.5 µM [inhibitor, single point]
COc1cc(OCc2ccccc2)c(C(=O)/C=C/c2ccc3c(c2)OCO3)c(OC)c1OC	inconclusive: 7.94 µM [inhibitor, full curve, poor fit]
O=C(O)c1ccc(N/N=C/c2ccc(-c3ccccc3)cc2)cc1	inconclusive: 8.91 µM [inhibitor, single point]
Clc1cccc2c3c([nH]c12)CCNC3	inactive
COc1ccc(OC)c(S(=O)(=O)N(C)CC(=O)N2CCN(c3cccc(Cl)c3)CC2)c1	inconclusive: 15.8 µM [inhibitor, single point]
CCCCOC(=O)c1ccc(NC(=O)c2cnc3n(c2=O)CCS3)cc1	inconclusive: 6.31 µM [inhibitor, single point]
O=C(NCCSCc1ccco1)c1ccc(CN2CCOCC2)cc1	inactive
Cc1ccc2nc(-c3ccc(N)cc3)sc2c1	active: 3.55 µM
COc1ccc(CCNC(=O)c2ccccc2NC(=O)CN2CCN(c3ccccc3O)CC2)cc1	inconclusive: 11.2 µM [inhibitor, partial curve, poor fit]
CCOC(=O)C1=C(C)N(CC(C)C)C(=O)/C1=C\c1ccc(OCC(=O)Nc2ccccc2)cc1	inactive
O=[N+]([O-])c1cccc(COc2ccc(CO)cc2)c1	inconclusive: 9.95 µM [activator, full curve]
O=C(NCc1ccccn1)c1ccc(OC2CCN(Cc3ccc(CO)o3)CC2)cc1	inactive
CCN(Cc1ccccc1)C(c1cccs1)c1nnnn1C1CCCCC1 (stereo not given)	inconclusive: 3.66 µM [inhibitor, partial curve]

Some of the entries so far, as labelled records.
COCCN1CCn2c(nc3cc(NS(C)(=O)=O)ccc32)C1
  Potency: inconclusive: 6.31 µM [inhibitor, single point]
CCSC1=C(C#N)[C@@H](c2cccs2)C(C(=O)OC)=C(C)N1
  Potency: inactive
CCOC(=O)Cc1csc(NS(=O)(=O)c2ccc([N+](=O)[O-])cc2)n1
  Potency: inactive
